Taken from: PubChem BioAssay AID1259405 (NCATS, 2018)

- Aim: 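Mouse-designed siRNAs used to find CHO productivity engineering targets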 (primary screen)
- Cells: Chinese hamster CHO-K1 ovary cells with stable secreted eGFP expression
- Knock-down reagent: single siRNA against mouse genes, 0.8 pmol siRNA per well (2 µl of 400 nM stock)
- Duration: 3 days
- Read-out: 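Percent of the per-plate non-targeting control median for intracellular GFP per well by laser scanning cytometry and for cell viability by ATP luminescence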
- Reading the numbers: GFP, % of control: higher = more GFP per well, higher productivity; viability (ATP), % of control: higher = more viable cells (more ATP)
- Hit rule: 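Called active when intracellular GFP, relative to negative control, is at or above 120%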
Here is a random part of about 50,000 deposited reagents. About 4,000 of them (8%) were called active. 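Mouse siRNA library applied to hamster cells; one well for each siRNA.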 A number with no mark means an inactive call.

The opening 5 entries as a preview:
Target gene	PubChem SID	GFP, % of control	viability (ATP), % of control
Col4a2	SID363553725	81.3	75.4
Col4a2	SID363561682	105	81.9
Col4a2	SID363565420	89.2	63.2
Or2h2c	SID363554698	69.2	69.3
Or2h2c	SID363568145	72.9	84

The listing, from the start:
Target gene	PubChem SID	GFP, % of control	viability (ATP), % of control
Col4a2	SID363553725	81.3	75.4
Col4a2	SID363561682	105	81.9
Col4a2	SID363565420	89.2	63.2
Or2h2c	SID363554698	69.2	69.3
Or2h2c	SID363568145	72.9	84
Or2h2c	SID363586204	86.8	113
Pou3f2	SID363573611	89.1	84.5
Pou3f2	SID363581355	111	84.2
Pou3f2	SID363583819	77.8	83.2
Sh3gl2	SID363554987	104	85
Sh3gl2	SID363568434	80.9	75.4
Sh3gl2	SID363586493	71.7	89.3
Mrpl45	SID363562202	130 (active)	77.1
Mrpl45	SID363567340	97.4	82.2
Mrpl45	SID363584697	90.2	54.6
Ifi27l2a	SID363543474	97.5	62.7
Ifi27l2a	SID363552967	57	36.1
Ifi27l2a	SID363558815	78.7	80.6
Or1af1	SID363544589	51.7	47
Or1af1	SID363550917	60.8	69.6
Or1af1	SID363557466	53.9	39.2
Cox7a2l	SID363568948	109	122
Cox7a2l	SID363576340	92.3	76.9
Cox7a2l	SID363579156	85	82.5
Cldn18	SID363541743	58.4	58.7
Cldn18	SID363553335	97.1	75.6
Cldn18	SID363566659	108	28.5
Nck2	SID363544171	47.9	44.4
Nck2	SID363550499	92.6	85.4
Nck2	SID363557048	66.5	86.7
Tspan15	SID363541390	96.8	82
Tspan15	SID363556017	52.8	52.8
Tspan15	SID363566306	78.3	78.6
Klhl12	SID363572289	40.3	57.4
Klhl12	SID363574049	89.4	48
Cd3g	SID363544364	87.3	55
Cd3g	SID363550692	68.6	83.4
Cd3g	SID363557241	52.9	61.5
Ccl28	SID363550008	68.3	81.2
Ccl28	SID363564517	29.3	49.6
Ccl28	SID363588062	82.5	116
Fgf22	SID363541253	83	69.8
Fgf22	SID363555880	101	71.5
Fgf22	SID363566169	33.7	43.5
Cabp7	SID363582577	69.2	93.5
Cabp7	SID363584337	86.7	83.1
Six5	SID363573725	116	104
Six5	SID363581469	69.4	83.7
Six5	SID363583933	89.9	118
Defb23	SID363539700	65	88.7
Defb23	SID363561001	44.9	45.7
Defb23	SID363565091	106	87.1
Usp49	SID363574482	86.3	87.6
Usp49	SID363575538	47.3	46.5
Usp49	SID363580114	74.3	79.5
Art1	SID363545101	148 (active)	72.9
Art1	SID363548614	46.7	45.2
Art1	SID363562420	104	60.9
